Test results: PubChem BioAssay AID624359 (Broad Institute, 2012)
Inconclusive means that the source gave no clear call. Such entries were picked first, then a sample of the others. Calls of active or inactive are those of the source.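 The calls were made as follows: active = fitted curve reaches 35% inhibition at a concentration up to twice the top valid dose; inconclusive = no clear call, values can overlap the other calls; inactive = the rest, including signal moving the opposite way.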

Assay: inhibitors of LMP1-driven NF-kB reporter, dose response, cell-based, EBV LMP1, luciferase, dry powder (AID 624359)
Conditions: HEK293 LMP1 TES2 NF-kB luciferase reporter, 16 h; at 26 µM (top of the series) unless noted
In the case of C/C(=N\NC(=S)N1CCCCC1)c1ccccn1, the activity change, negative = inhibition was inconclusive: -116%.
For C/C(=N\NC(=S)Nc1ccc(C)cc1)c1ccccn1, the activity change, negative = inhibition was inconclusive: 34.5% [at 12 µM].
With C=CCN1Cc2ccccc2[C@@H]2OC(c3ccc(OCCCO)cc3)=N[C@]2(CCC(=O)OC(C)(C)C)C1=O the activity change, negative = inhibition was inactive: 3.78%.
In the case of Cc1ccnc(NC(=O)c2ccc(C(=O)c3ccccc3)cc2)c1, the activity change, negative = inhibition was inconclusive: 2.77%.
With C/C(=N\NC(=S)N1CCCCCC1)c1ccccn1 the activity change, negative = inhibition was inconclusive: -90.5%.
With C/C(=N\NC(=S)Nc1ccccc1)c1ccccn1 the activity change, negative = inhibition was inconclusive: -39.7% [at 12 µM].
With C/C(=N\NC(=S)N1CC2CCC(CC2)C1)c1cnccn1 the activity change, negative = inhibition was inconclusive: -117%.
For c1ccc(-c2cn3c4c(sc3n2)CCCC4)cc1, the activity change, negative = inhibition was inactive: 6.83%.
